Here are results for two substances from patent publication US20060078875A1 (The Penn State Research Foundation, priority 2004, published 2006).

A short description of data set [1]: general procedure: peptide synthesis; chemically modified PEGA resin; EDC/HOAt (cyclisation). Conditions: cyclisation step.
Another data set is described as follows: peptide synthesis. Conditions: cyclisation step.

R Y F N V C came in with a cyclisation yield in data set [1] of 64%.

With M F L N V SGW, the cyclisation yield in “peptide synthesis” is 73%.
